The chains behind the UniProt entries cited, without tags or fusion partners.
UniProt A0A0P0INT0: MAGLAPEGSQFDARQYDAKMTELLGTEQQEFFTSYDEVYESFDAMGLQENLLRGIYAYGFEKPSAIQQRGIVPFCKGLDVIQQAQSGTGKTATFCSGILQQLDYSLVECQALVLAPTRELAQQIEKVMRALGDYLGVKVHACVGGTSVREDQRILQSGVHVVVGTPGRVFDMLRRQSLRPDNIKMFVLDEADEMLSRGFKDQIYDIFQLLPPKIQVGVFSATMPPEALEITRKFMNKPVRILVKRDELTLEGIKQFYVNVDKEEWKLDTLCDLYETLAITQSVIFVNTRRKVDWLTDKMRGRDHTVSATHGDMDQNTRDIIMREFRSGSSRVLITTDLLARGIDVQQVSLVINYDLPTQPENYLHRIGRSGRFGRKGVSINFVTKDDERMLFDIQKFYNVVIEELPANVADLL

In PMC12334043:

Target: T1, CiLV-C capsid protein p29 with a C-terminal HA epitope, expressed from the infectious clone (pcDNA1-p29:HA + pcDNA2) (citrus leprosis virus C) (UniProt Q1KZ58)
T1 sequence: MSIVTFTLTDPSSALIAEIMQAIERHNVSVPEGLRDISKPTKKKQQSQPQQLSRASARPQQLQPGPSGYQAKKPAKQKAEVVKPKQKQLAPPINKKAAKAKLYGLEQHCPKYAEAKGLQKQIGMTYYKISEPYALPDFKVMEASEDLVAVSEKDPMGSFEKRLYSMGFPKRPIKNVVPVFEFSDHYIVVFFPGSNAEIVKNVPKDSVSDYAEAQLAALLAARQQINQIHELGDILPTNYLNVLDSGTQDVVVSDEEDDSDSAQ
Experiment: affinity purification with mass spectrometry; anti-HA magnetic beads (Pierce Magnetic HA-Tag kit) on extracts of N. benthamiana leaves infected with CiLV-C-p29:HA, 12 dpi; hits filtered as unique against the mock sample (healthy plant); untagged virus as control

Substance	binding
eukaryotic initiation factor 4A (endogenous, N. benthamiana) (from UniProt A0A0P0INT0 1-413)	binds
hypersensitive-induced response protein 1-like (endogenous, N. benthamiana)	binds

These are yes or no findings as the source states them, for the method shown. In cells and extracts the contact can be indirect. These calls come from enrichment with a bait or labelling near it, and not all partners need be listed. Tags and fused reporters may be left off the sequences shown.
